The record followed here is PubChem BioAssay AID214 (DTP/NCI, 2004).

This experiment has as its system B6C3F1 mice, colon carcinoma 38 s.c., T/C. The experiment is described as follows: NCI In Vivo Anticancer Drug Screen. Data for tumor model Colon Carcinoma 38 (subcutaneous) in B6C3F1 mice. The following applies: T/C endpoint: median tumor weight (est.), schedule: Q07DX002 (ip), higher T/C = larger tumour; for T/C: evaluated on day 20. As for the experimental part:
The antitumor activity of compounds was measured in mice bearing transplantable tumors. Survival or tumor size were measured and the results are expressed as the measurement made in the treated group (T) divided by the measurement made in the vehicle treated control group (C). The tumor model used in this assay is Colon Carcinoma 38 (subcutaneous) in B6C3F1 mice

Where [1] appears, read: dose: 40.0 mg/kg/injection, vehicle: saline.
[2] abbreviates: dose: 80.0 mg/kg/injection, vehicle: saline.
[3] abbreviates: dose: 1600.0 mg/kg/injection, vehicle: saline with Tween-80.
The mark [4] stands for this setting: dose: 5.0 mg/kg/injection, vehicle: saline.
Where [5] appears, read: dose: 10.0 mg/kg/injection, vehicle: saline.
Where [6] appears, read: dose: 20.0 mg/kg/injection, vehicle: saline.
Where [7] appears, read: dose: 24.0 mg/kg/injection, vehicle: saline.
Where [8] appears, read: dose: 48.0 mg/kg/injection, vehicle: saline.
The mark [9] stands for this setting: dose: 140.0 mg/kg/injection, vehicle: saline.

Each structure is given as a SMILES string. The list is a part of this screen's results and no random one: it is rich in T/C values a quarter to a half above the control, in often repeated tests (any T/C) and in doses without a T/C. Further doses and runs are listed elsewhere. T/C: endpoint of the treated group in % of that of the vehicle group. Schedules are NCI's codes, read here as Q, the interval in days (D) or hours (H), X, the number of doses. Some T/C values are followed by the survivors on the day toxicity was checked, most often the fifth; where none is given, no animal had died by that day. Some entries were tested several times; the values are given in rising order. Counts like (3×) give the number of equal values in this list. Some doses have a count of surviving animals in place of a T/C: the source holds a T/C of zero for them, seemingly a mark for toxic or unscored doses. Survivors were counted at the toxicity check, usually on the fifth day, unless a day is given; later deaths do not show.

For the compound `ClCCCN1CCN(CCCl)CC1`, the survivor count reads like this: under setting [1], 0 of 10 on day 20; under setting [2], 0 of 10 on day 20.

For `O=C1NC(=O)/C(=C/C=C/c2ccccc2)S1`, the survivor count under setting [3] is reported as 6 of 10 on day 20.

Turning to `CCCCNc1ccc2nnc(C)n2n1`, the T/C (dose: 100.0 mg/kg/injection, vehicle: DMSO) is 132 % of control. Further, the survivor count (dose: 400.0 mg/kg/injection, vehicle: DMSO) is reported as 2 of 10 on day 20 and the survivor count (dose: 800.0 mg/kg/injection, vehicle: DMSO) is on record as 0 of 10 on day 20.

Consider `c1ccc([C@H]2CN3CCSC3=N2)cc1`, for which the T/C under setting [4] is 80, 87, 91, 110, 112, 113, 117 [9 of 10 alive on day 20], 145 % of control; the T/C under setting [5] was 64, 80, 97, 103, 103 [9 of 10 alive on day 20], 109 [9 of 10 alive on day 20], 114, 116 % of control [9 of 10 alive on day 20]; the T/C under setting [6] is 53, 79, 92 [9 of 10 alive on day 20], 95 [8 of 10 alive on day 20], 96, 106 (2×), 127 % of control; the T/C under setting [1] is 46, 65, 81, 86 [9 of 10 alive on day 20], 101 [7 of 10 alive on day 20], 106 [8 of 10 alive on day 20], 106 [9 of 10 alive on day 20], 113 % of control [9 of 10 alive on day 20]. In addition, the survivor count under setting [2] is 0 of 10 on day 20.

In the case of `C[C@@H]1CC[C@]2(C)CC[C@]3(C)C(=CC[C@@H]4[C@@]5(C)CC[C@@H](OC(=O)c6ccc(O)cc6)C(C)(C)[C@@H]5C[C@H](O)[C@]43C)[C@@H]2[C@H]1C(=O)O`, the T/C (dose: 0.25 mg/kg/injection, vehicle: saline with Tween-80) was 138 % of control.

As for `CCN(CC)CCOCCO`, the T/C (dose: 200.0 mg/kg/injection, vehicle: suspension in saline) is 125 % of control. In addition, the survivor count (dose: 400.0 mg/kg/injection, vehicle: suspension in saline) is recorded as 5 of 10 on day 20 and the survivor count (dose: 800.0 mg/kg/injection, vehicle: suspension in saline) is recorded as 0 of 10 on day 20.

For the compound `COc1ccccc1CC(=O)O`, the survivor count is recorded as 5 of 10 on day 20 (dose: 600.0 mg/kg/injection, vehicle: saline with Tween-80) and 4 of 10 on day 20 (dose: 1200.0 mg/kg/injection, vehicle: saline with Tween-80).

As for `COc1ccc(OC)c(Cc2cnc3nc(N)nc(N)c3c2C)c1`, the T/C (dose: 100.0 mg/kg/injection, vehicle: water) was 140 % of control. The survivor count by setting is: (dose: 200.0 mg/kg/injection, vehicle: water) 2 of 10 on day 20; (dose: 400.0 mg/kg/injection, vehicle: water) 1 of 10 on day 20.

For the compound `Nc1nc(N)c2cc(S(=O)(=O)c3ccccc3)ccc2n1`, under setting [3], the survivor count is listed as 3 of 10 on day 20.

Consider `Oc1c(Cl)cc(Cl)cc1C=NCCSc1ccc(Cl)cc1`, for which the survivor count (dose: 800.0 mg/kg/injection, vehicle: Klucel (hydroxypropylcellulose) (HPC)) is recorded as 3 of 10 on day 20.

Consider `O=CC(NC(=O)N(CCCl)N=O)C(O)C(O)C(O)CO` (stereo not drawn), for which the T/C runs as follows: (dose: 3.0 mg/kg/injection, vehicle: saline) 71 (2×), 74, 87, 90, 93, 103, 120, 126 % of control; (dose: 6.0 mg/kg/injection, vehicle: saline) 53 [9 of 10 alive on day 20] (2×), 71, 72, 75, 102, 114, 119, 147 % of control; (dose: 12.0 mg/kg/injection, vehicle: saline) 38, 42 (2×), 43, 55 [9 of 10 alive on day 20], 58, 66, 108, 141 % of control; under setting [7], 9, 12 [9 of 10 alive on day 20] (2×), 15, 28, 36, 43 [8 of 10 alive on day 20], 120 % of control; under setting [8], 14 % of control [8 of 10 alive on day 20]. Further, the survivor count is, setting by setting: under setting [7], 6 of 10 on day 20; under setting [8], 0 of 10 on day 20, 2 of 10 on day 20, 3 of 10 on day 20.

As to `N[C@@H](Cc1ccc(N(CCCl)CCCl)cc1)C(=O)O`, the T/C by setting is: (dose: 2.5 mg/kg/injection, vehicle: saline) 31, 46, 53, 80, 83, 85, 109 % of control; under setting [4], 26, 27 [9 of 10 alive on day 20], 32, 46, 63, 108 % of control; under setting [5], 1, 7 [7 of 10 alive on day 20], 18, 49 [9 of 10 alive on day 20], 54 % of control; under setting [6], 1 [8 of 10 alive on day 20], 10, 16 % of control [7 of 10 alive on day 20]. The survivor count under setting [5] was 3 of 10 on day 20; the survivor count (dose: 10.0 mg/kg/injection, vehicle: suspension in saline) was 0 of 10 on day 20; the survivor count under setting [6] is 0 of 10 on day 20 and 2 of 10 on day 20; the survivor count (dose: 20.0 mg/kg/injection, vehicle: suspension in saline) is 0 of 10 on day 20 and 1 of 10 on day 20; the survivor count under setting [1] is 0 of 10 on day 20 and 1 of 10 on day 20; the survivor count (dose: 40.0 mg/kg/injection, vehicle: suspension in saline) was 0 of 10 on day 20.

For the compound `O=c1[nH]cc(F)c(=O)[nH]1`, the T/C (dose: 8.7 mg/kg/injection, vehicle: saline) was 11 [9 of 10 alive on day 20], 79, 84, 98, 133, 176 % of control; the T/C (dose: 17.5 mg/kg/injection, vehicle: saline) was 33, 36, 55 [9 of 10 alive on day 20], 103, 109, 126, 165 % of control; the T/C (dose: 35.0 mg/kg/injection, vehicle: saline) is 30, 33, 33 [8 of 10 alive on day 20], 44, 58, 72 [9 of 10 alive on day 20], 120 % of control; the T/C (dose: 70.0 mg/kg/injection, vehicle: saline) is on record as 1, 16, 24, 29, 32, 38, 47 % of control; the T/C under setting [9] is 3, 4 [8 of 10 alive on day 20], 4 % of control [9 of 10 alive on day 20]. Under setting [9], the survivor count is listed as 2 of 10 on day 20, 5 of 10 on day 20, 6 of 10 on day 20.

Consider `O=C1[C@H]2CCC[C@H]2[C@H]2CCC[C@@H]12`, for which the T/C reads like this: (dose: 12.5 mg/kg/injection, vehicle: saline with Tween-80) 129 and 131 % of control; (dose: 100.0 mg/kg/injection, vehicle: saline with Tween-80) 139 % of control. Further, where the note is “dose: 400.0 mg/kg/injection, vehicle: saline with Tween-80”, the survivor count was 6 of 10 on day 20.
